Measured data: PubChem BioAssay AID720505 (Drosophila RNAi Screening Center, 2013)
The screen tested about 20,000 reagents; shown is a random part of those that have a named target and a result. Of all reagents, about 2,100 (10%) were called active. 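Raw plate signals without normalisation; calls rest on control-based scores that were not deposited; replicate 2 separates called from uncalled poorly.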 Names joined by + are all predicted targets of the reagent. Not given: the amount of reagent, the time to read-out.

Aim: 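Fly regulators or components of the CRAC channel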 (primary screen)
Cell system: Drosophila S2R+ cells
Reagents: long dsRNA against Drosophila genes
Conditions: thapsigargin (2 µM) in calcium-free buffer to empty internal stores, then 2 mM calcium added back
Measurement: 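Stores emptied by 2 µM thapsigargin without calcium, then 2 mM calcium re-added; fluo-4 fluorescence followed by FLIPR in 384-well plates, per-well averaged endpoint, raw; two screen passes, some wells retested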
Direction: calcium signal and retest calcium signal: higher = more calcium entry after store depletion
Hit rule: 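About 1500 genes called as lowering calcium entry, by varying amounts, judged against per-plate control wells with STIM1 as positive and Rho1 as negative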
Meaning of the calls: active = called as lowering calcium entry; inactive = not called

The opening 7 records, ahead of the listing:
target,amplicon,"calcium signal, replicate 1","calcium signal, replicate 2","retest calcium signal, replicate 1","retest calcium signal, replicate 2",Call
su(r),DRSC18705,110,131,,,inactive
qvr,DRSC05280,90.1,122,,,inactive
CG16984,DRSC08500,72.3,96.7,,,inactive
Try29F,DRSC03466,102,121,,,inactive
NaPi-T,DRSC07476,144,192,,,inactive
CG14610 + asRNA:CR42738,DRSC12554,86.5,145,,,inactive
CG14102,DRSC10103,84.6,121,,,inactive

Main list, from the first entry:
target,amplicon,"calcium signal, replicate 1","calcium signal, replicate 2","retest calcium signal, replicate 1","retest calcium signal, replicate 2",Call
su(r),DRSC18705,110,131,,,inactive
qvr,DRSC05280,90.1,122,,,inactive
CG16984,DRSC08500,72.3,96.7,,,inactive
Try29F,DRSC03466,102,121,,,inactive
NaPi-T,DRSC07476,144,192,,,inactive
CG14610 + asRNA:CR42738,DRSC12554,86.5,145,,,inactive
CG14102,DRSC10103,84.6,121,,,inactive
CG10513,DRSC14248,106,101,,,inactive
CG9449,DRSC11073,105,162,,,inactive
l(1)G0004,DRSC20486,107,110,,,inactive
CG42820,DRSC02265,152,143,,,inactive
CG15083,DRSC06514,108,95.4,,,inactive
dom,DRSC04558,73.3,146,,,active
dom,DRSC04559,160,101,,,inactive
osa,DRSC17022,162,213,,,inactive
CG7675,DRSC16280,159,287,,,inactive
CG12182,DRSC08142,158,123,,,inactive
CG4477,DRSC10425,81.5,86.8,,,inactive
CG8916,DRSC20120,102,137,,,inactive
CG11141,DRSC06048,153,91.2,,,inactive
CG11367,DRSC22434,113,193,,,inactive
CG15212,DRSC10212,109,87.1,,,inactive
SmydA-8,DRSC18797,132,120,,,inactive
SmydA-8,DRSC22064,122,227,,,inactive
SmydA-8,DRSC22263,93.5,175,,,inactive
Mical,DRSC14349,61.2,65.5,,,active
Mical,DRSC14351,106,79.3,,,inactive
Mical,DRSC15365,70.4,105,,,active
Mical,DRSC15366,108,79,,,inactive
MtnD,DRSC22733,124,212,,,inactive
CG12783,DRSC14538,108,124,,,inactive
CG43100 (retired record),DRSC01001,138,97.9,,,inactive
Gfat2,DRSC14598,90.5,121,,,inactive
CG17996 + Tsen2,DRSC02650,98.9,110,,,inactive
Cdc27,DRSC11112,47.7,67,,,active
CG17806,DRSC15276,139,238,,,inactive
CG13376,DRSC17901,94.9,96.8,,,active
CG12133,DRSC06108,88.5,115,,,inactive
fbl,DRSC11886,90.2,119,,,inactive
VGAT,DRSC07160,96.9,168,,,inactive
Fum3,DRSC10592,109,123,,,inactive
Pask,DRSC04337,109,107,,,inactive
Paics,DRSC20305,150,134,,,inactive
CG17177,DRSC10257,104,199,,,inactive
CG8641,DRSC11028,138,89.1,,,inactive
Cdc7,DRSC18428,165,134,116,124,inactive
Cdc7,DRSC18429,176,112,,,inactive
Cdc7,DRSC22133,96.8,138,,,inactive
Obp56d,DRSC06064,146,228,,,inactive
nesd,DRSC02099,116,106,,,inactive
PGRP-SC1b,DRSC07215,208,213,,,inactive
CG15710,DRSC06581,145,157,,,inactive
CG14212,DRSC19568,73.6,233,,,active
CG7320,DRSC10810,113,205,,,inactive
Gr98a,DRSC14719,113,190,,,inactive
CG15483,DRSC02493,115,108,,,inactive
CG33299,DRSC01085,112,86.2,,,inactive
Nepl12,DRSC16411,98.9,95.2,,,inactive
Surf6,DRSC15588,209,300,,,inactive
Sans,DRSC06357,115,93.8,,,inactive
mmd,DRSC19672,78.1,187,,,inactive
mmd,DRSC19673,98.7,144,,,inactive
mmd,DRSC20161,90.6,156,,,inactive
mmd,DRSC23042,102,161,,,inactive
CG31106,DRSC14655,240,160,,,inactive
CG10013,DRSC14175,111,167,,,inactive
kek5,DRSC19438,346,149,,,inactive
Rim,DRSC16224,180,158,,,inactive
Rim,DRSC16225,125,146,,,inactive
Rim,DRSC16226,177,276,,,inactive
Rim,DRSC16227,156,144,,,inactive
Rim,DRSC22406,71.4,153,,,inactive
Mppe,DRSC07296,169,139,,,inactive
MstProx,DRSC12601,118,115,,,inactive
CG14125,DRSC10129,141,119,,,inactive
spag4,DRSC02973,220,191,,,inactive
lncRNA:CR41443,DRSC07733,147,105,,,inactive
CG10919,DRSC14283,116,152,,,inactive
CG33491 (retired record) + CG33496 (retired record) + CG33487 (retired record) + 1 more,DRSC22969,103,170,,,inactive
ebd2,DRSC11682,102,169,,,inactive
Nrx-1,DRSC16184,143,235,,,inactive
CG8851,DRSC00718,126,84.4,,,inactive
CG42741,DRSC04593,122,194,,,inactive
CG42741,DRSC22045,117,183,,,inactive
hpRNA:CR32205,DRSC09890,91.8,144,,,inactive
CG32669,DRSC18864,,,,,inactive
CG5116,DRSC15720,92.7,129,,,inactive
Pstk + Tim9b,DRSC19504,95.4,109,,,inactive
Pstk + Tim9b,DRSC20292,77.3,215,,,active
B-H2,DRSC19335,54.3,116,,,active
B-H2,DRSC23012,131,165,,,inactive
RAF2,DRSC10443,147,102,,,inactive
RAF2,DRSC10454,146,204,,,inactive
Pig1,DRSC18698,119,132,,,inactive
Ids,DRSC08222,62.5,98.5,,,inactive
dpr2,DRSC02370,123,150,,,inactive
dpr2,DRSC02371,129,148,,,inactive
CG15005,DRSC08459,102,112,,,inactive
CG10584,DRSC11624,99.6,87.8,,,inactive
CG10340,DRSC14232,163,263,,,inactive
Ubi-p63E,DRSC22016,85.4,182,,,inactive
CG9338,DRSC03213,98.9,90,,,inactive
RpL18,DRSC11016,92.3,41.2,81,72.8,inactive
RpL18,DRSC22323,73.2,129,,,active
CG31269,DRSC15744,164,173,,,inactive
CG30094,DRSC22268,75.6,162,,,inactive
